PubChem BioAssay AID652243 – Drosophila RNAi Screening Center, 2013
The deposit covers about 24,000 reagents; this is a random part of those with a known target gene and a result. Of all reagents, 246 (1%) are marked active. 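Plates not normalised; calls are printed but the firefly/Renilla ratio behind them is not deposited; fold cut for lowering reported inconsistently.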 Raw values are not corrected between plates. Reagent sequences are not shown. The record does not give: the amount of reagent.

Test: 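Knock-downs that decrease or increase androgen receptor reporter signal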 (primary screen)
Cells: Drosophila S2R+ cells
Knock-down reagent: long dsRNA against Drosophila genes
Time to read-out: 72 h (48 h, then 24 h hormone)
Treatment: synthetic androgen R1881 at 10 nM for 24 h
Measurement: 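Per-well raw luminescence of the androgen-driven firefly reporter and of the Renilla control, two replicates each, without normalisation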
Direction: firefly reporter light: higher = more light from androgen-responsive reporter; Renilla control light: higher = more constitutive control signal (cell number, transfection)
Rule for the call: 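Hit when the log firefly-to-Renilla ratio dropped or increased by a fixed fold versus the mean of GFP or LacZ controls across duplicate plates; lowering cut given as 1.5 and as 3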
Calls: active = hit: reporter lowered or raised; inactive = no hit

| target | amplicon | firefly reporter light, replicate 1 | firefly reporter light, replicate 2 | Renilla control light, replicate 1 | Renilla control light, replicate 2 | call |
| --- | --- | --- | --- | --- | --- | --- |
| CG30270 (GeneID 251324) | DRSC22890 | 7.21e5 | 9.71e5 | 1.32e6 | 2.06e6 | inactive |
| CG12355 (GeneID 2768954) | DRSC09381 | 6.07e5 | 4.64e5 | 2.26e6 | 2.83e6 | inactive |
| CG12355 (GeneID 2768954) | DRSC09883 | 2.74e5 | 2.18e5 | 2.65e6 | 1.99e6 | inactive |
| CG31522 (GeneID 40567) | DRSC12005 | 2.82e5 | 3.16e5 | 5.68e5 | 6.87e5 | inactive |
| CG31522 (GeneID 40567) | DRSC29792 | 5.67e5 | 4.00e5 | 1.12e6 | 1.15e6 | inactive |
| lncRNA:CR43314 (GeneID 12798160) | DRSC21354 | 7.81e5 | 6.54e5 | 1.80e6 | 1.53e6 | inactive |
| lncRNA:CR43314 (GeneID 12798160) | DRSC29259 | 4.48e5 | 6.97e5 | 1.32e6 | 1.31e6 | inactive |
| CG9682 (GeneID 43602) | DRSC16536 | 90870 | 61845 | 6.24e5 | 4.07e5 | inactive |
| CG9682 (GeneID 43602) | DRSC25635 | 5.60e5 | 7.60e5 | 1.04e6 | 9.85e5 | inactive |
| Or33a (GeneID 34601) | DRSC03386 | 2.29e5 | 1.87e5 | 1.60e6 | 1.80e6 | inactive |
| CG6738 (GeneID 42732) | DRSC16104 | 1.30e5 | 1.54e5 | 1.81e6 | 1.53e6 | inactive |
| CG6738 (GeneID 42732) | DRSC27802 | 2.15e5 | 2.37e5 | 3.08e5 | 7.62e5 | inactive |
| CG9917 (GeneID 32596) | DRSC20218 | 1.10e5 | 1.22e5 | 5.86e5 | 7.77e5 | inactive |
| pasha (GeneID 43728) | DRSC15295 | 75941 | 65662 | 8.26e5 | 4.89e5 | inactive |
| pasha (GeneID 43728) | DRSC27821 | 2.02e5 | 2.24e5 | 5.04e5 | 8.05e5 | inactive |
| Taf5 (GeneID 47900) | DRSC07562 | 6.69e5 | 2.79e5 | 1.51e6 | 7.35e5 | inactive |
| Taf5 (GeneID 47900) | DRSC29351 | 3.75e5 | 3.01e5 | 1.12e6 | 1.12e6 | inactive |
| Taf13 (GeneID 35297) | DRSC02106 | 1.66e5 | 1.34e5 | 1.26e6 | 1.11e6 | inactive |
| Mtr4 (GeneID 48782) | DRSC03560 | 4.44e5 | 5.71e5 | 6.33e5 | 1.47e6 | inactive |
| Grl65a (GeneID 117342) | DRSC08837 | 2.63e5 | 1.10e5 | 5.60e5 | 3.77e5 | inactive |
| Grl65a (GeneID 117342) | DRSC25986 | 5.17e5 | 5.50e5 | 8.82e5 | 8.64e5 | inactive |
| sl (GeneID 32601) | DRSC20377 | 73553 | 73806 | 4.63e5 | 5.66e5 | inactive |
| sl (GeneID 32601) | DRSC21782 | 3.16e5 | 3.56e5 | 1.27e6 | 2.03e6 | inactive |
| Naa20A (GeneID 32962) | DRSC19579 | 43954 | 70718 | 4.27e5 | 4.64e5 | inactive |
| Best1 (GeneID 53431) | DRSC16909 | 6.93e5 | 7.34e5 | 2.67e6 | 1.79e6 | inactive |
| Best1 (GeneID 53431) | DRSC26475 | 2.87e5 | 1.78e5 | 3.87e5 | 2.93e5 | inactive |
| Cad99C (GeneID 43528) | DRSC15050 | 1.58e5 | 1.45e5 | 2.34e6 | 2.53e6 | inactive |
| Cad99C (GeneID 43528) | DRSC16317 | 84094 | 85689 | 1.04e6 | 7.00e5 | inactive |
| CG9040 (GeneID 39546) | DRSC11053 | 1.93e5 | 1.55e5 | 2.81e6 | 1.67e6 | inactive |
| CG14852 (GeneID 41765) | DRSC14976 | 1.51e5 | 1.06e5 | 2.15e6 | 2.02e6 | inactive |
| CG14852 (GeneID 41765) | DRSC23844 | 8.91e5 | 9.05e5 | 9.29e5 | 8.91e5 | inactive |
| CG5641 (GeneID 41529) | DRSC15852 | 57458 | 68415 | 4.60e5 | 5.23e5 | inactive |
| Acp53C14c (GeneID 3346203) | DRSC38868 | 8.17e5 | 7.78e5 | 1.46e6 | 1.78e6 | inactive |
| side-VI (GeneID 4379854) | DRSC14920 | 1.15e5 | 1.16e5 | 2.34e6 | 2.17e6 | inactive |
| side-VI (GeneID 4379854) | DRSC23088 | 6.84e5 | 8.71e5 | 1.36e6 | 1.67e6 | inactive |
| side-VI (GeneID 4379854) | DRSC28883 | 4.15e5 | 3.59e5 | 1.51e6 | 1.45e6 | inactive |

Part of the list above in another layout.
target	amplicon	firefly reporter light, replicate 1	firefly reporter light, replicate 2	Renilla control light, replicate 1	Renilla control light, replicate 2	call
lncRNA:CR43314 (GeneID 12798160)	DRSC21354	7.81e5	6.54e5	1.80e6	1.53e6	inactive
lncRNA:CR43314 (GeneID 12798160)	DRSC29259	4.48e5	6.97e5	1.32e6	1.31e6	inactive
CG9682 (GeneID 43602)	DRSC16536	90870	61845	6.24e5	4.07e5	inactive

The results go on.
| target | amplicon | firefly reporter light, replicate 1 | firefly reporter light, replicate 2 | Renilla control light, replicate 1 | Renilla control light, replicate 2 | call |
| --- | --- | --- | --- | --- | --- | --- |
| Hgsnat (GeneID 31423) | DRSC18405 | 70423 | 65295 | 7.31e5 | 5.73e5 | inactive |
| Hgsnat (GeneID 31423) | DRSC24716 | 5.59e5 | 8.45e5 | 1.12e6 | 1.27e6 | inactive |
| Fdx2 (GeneID 38530) | DRSC08306 | 1.18e5 | 1.49e5 | 2.23e6 | 2.60e6 | inactive |
| Zasp52 (GeneID 36740) | DRSC06269 | 34522 | 22295 | 6.85e5 | 6.85e5 | inactive |
| Zasp52 (GeneID 36740) | DRSC07121 | 1.07e5 | 1.56e5 | 1.86e6 | 1.86e6 | inactive |
| Mal-A7 (GeneID 35829) | DRSC06077 | 3.04e5 | 2.97e5 | 1.64e6 | 1.35e6 | inactive |
| CG6664 (GeneID 39903) | DRSC10690 | 25452 | 67385 | 3.78e5 | 4.45e5 | inactive |
| CG6664 (GeneID 39903) | DRSC25430 | 5.48e5 | 7.49e5 | 6.12e5 | 8.26e5 | inactive |
| CG6664 (GeneID 39903) | DRSC39058 | 9.68e5 | 8.43e5 | 2.08e6 | 2.06e6 | inactive |
| Nlg4 (GeneID 42402) | DRSC15109 | 2.21e5 | 1.79e5 | 2.75e6 | 3.22e6 | inactive |
| Nlg4 (GeneID 42402) | DRSC15700 | 2.27e5 | 1.95e5 | 2.75e6 | 2.98e6 | inactive |
| Nlg4 (GeneID 42402) | DRSC22243 | 2.22e5 | 1.65e5 | 9.59e5 | 7.02e5 | inactive |
| Nlg4 (GeneID 42402) | DRSC28785 | 3.97e5 | 3.43e5 | 1.16e6 | 1.01e6 | inactive |
| Nlg4 (GeneID 42402) | DRSC29761 | 4.67e5 | 3.51e5 | 9.68e5 | 9.96e5 | inactive |
| Nlg4 (GeneID 42402) | DRSC30022 | 3.63e5 | 3.44e5 | 1.06e6 | 1.40e6 | inactive |
| Fsn (GeneID 36460) | DRSC06875 | 6.23e5 | 5.26e5 | 2.11e6 | 2.32e6 | inactive |
| Fsn (GeneID 36460) | DRSC27704 | 2.69e5 | 1.90e5 | 4.98e5 | 5.75e5 | inactive |
| CG2113 (GeneID 38356) | DRSC08554 | 1.52e5 | 81641 | 1.50e6 | 8.63e5 | inactive |
| CG2113 (GeneID 38356) | DRSC29350 | 6.11e5 | 5.73e5 | 1.35e6 | 1.35e6 | inactive |
| CG13862 (GeneID 42610) | DRSC14712 | 4.43e5 | 4.55e5 | 3.36e6 | 3.88e6 | inactive |
| mei-41 (GeneID 32608) | DRSC20350 | 2.47e5 | 2.24e5 | 1.67e6 | 1.37e6 | inactive |
| mei-41 (GeneID 32608) | DRSC36630 | – | – | – | – | inactive |
| mei-41 (GeneID 32608) | DRSC36631 | – | – | – | – | inactive |
